# Data from publication PMC10171863.
# The chains behind the UniProt entries cited, without tags or fusion partners.
# UniProt P16054: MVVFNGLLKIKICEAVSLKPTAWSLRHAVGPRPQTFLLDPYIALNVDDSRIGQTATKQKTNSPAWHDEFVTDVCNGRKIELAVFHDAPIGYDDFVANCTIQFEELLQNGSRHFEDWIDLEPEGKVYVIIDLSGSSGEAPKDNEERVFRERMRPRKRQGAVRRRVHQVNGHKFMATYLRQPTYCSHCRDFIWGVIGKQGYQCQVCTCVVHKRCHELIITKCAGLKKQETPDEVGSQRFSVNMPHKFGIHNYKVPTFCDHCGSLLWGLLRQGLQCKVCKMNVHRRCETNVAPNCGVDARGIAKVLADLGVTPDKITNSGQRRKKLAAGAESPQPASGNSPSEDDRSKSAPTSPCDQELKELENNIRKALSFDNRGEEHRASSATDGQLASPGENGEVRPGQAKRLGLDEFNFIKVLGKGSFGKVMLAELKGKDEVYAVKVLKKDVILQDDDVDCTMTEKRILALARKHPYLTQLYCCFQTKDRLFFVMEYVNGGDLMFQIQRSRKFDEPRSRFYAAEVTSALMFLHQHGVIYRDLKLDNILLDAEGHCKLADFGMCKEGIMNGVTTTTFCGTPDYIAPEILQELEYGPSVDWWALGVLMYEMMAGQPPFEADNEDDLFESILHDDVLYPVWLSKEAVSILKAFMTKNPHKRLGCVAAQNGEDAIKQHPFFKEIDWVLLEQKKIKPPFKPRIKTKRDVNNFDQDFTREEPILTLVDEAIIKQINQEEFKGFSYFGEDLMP
# UniProt Q9EQZ6: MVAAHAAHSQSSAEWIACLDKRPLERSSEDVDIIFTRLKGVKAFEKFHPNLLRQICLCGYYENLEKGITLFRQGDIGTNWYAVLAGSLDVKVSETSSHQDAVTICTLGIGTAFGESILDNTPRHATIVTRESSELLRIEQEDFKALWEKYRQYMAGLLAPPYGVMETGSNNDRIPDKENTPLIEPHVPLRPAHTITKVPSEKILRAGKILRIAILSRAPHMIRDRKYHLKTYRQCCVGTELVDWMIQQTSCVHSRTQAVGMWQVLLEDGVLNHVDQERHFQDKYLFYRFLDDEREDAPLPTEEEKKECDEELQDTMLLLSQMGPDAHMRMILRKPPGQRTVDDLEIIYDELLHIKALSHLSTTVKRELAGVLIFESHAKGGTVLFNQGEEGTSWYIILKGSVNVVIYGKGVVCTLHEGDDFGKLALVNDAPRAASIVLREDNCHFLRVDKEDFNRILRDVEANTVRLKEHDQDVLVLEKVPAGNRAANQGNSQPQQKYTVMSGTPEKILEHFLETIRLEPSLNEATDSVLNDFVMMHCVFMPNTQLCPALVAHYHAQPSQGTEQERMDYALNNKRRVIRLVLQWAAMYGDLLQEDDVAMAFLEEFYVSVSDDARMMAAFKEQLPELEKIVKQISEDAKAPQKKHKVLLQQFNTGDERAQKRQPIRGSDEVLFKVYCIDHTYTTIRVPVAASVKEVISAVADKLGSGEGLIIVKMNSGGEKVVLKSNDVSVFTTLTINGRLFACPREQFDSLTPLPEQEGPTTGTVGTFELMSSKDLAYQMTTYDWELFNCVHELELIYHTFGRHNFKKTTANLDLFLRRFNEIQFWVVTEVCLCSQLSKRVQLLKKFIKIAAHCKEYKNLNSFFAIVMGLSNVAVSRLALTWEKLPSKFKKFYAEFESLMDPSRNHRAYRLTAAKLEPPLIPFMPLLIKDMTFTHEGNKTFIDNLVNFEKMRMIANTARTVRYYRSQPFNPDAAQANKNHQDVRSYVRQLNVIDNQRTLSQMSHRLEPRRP
# UniProt P09216: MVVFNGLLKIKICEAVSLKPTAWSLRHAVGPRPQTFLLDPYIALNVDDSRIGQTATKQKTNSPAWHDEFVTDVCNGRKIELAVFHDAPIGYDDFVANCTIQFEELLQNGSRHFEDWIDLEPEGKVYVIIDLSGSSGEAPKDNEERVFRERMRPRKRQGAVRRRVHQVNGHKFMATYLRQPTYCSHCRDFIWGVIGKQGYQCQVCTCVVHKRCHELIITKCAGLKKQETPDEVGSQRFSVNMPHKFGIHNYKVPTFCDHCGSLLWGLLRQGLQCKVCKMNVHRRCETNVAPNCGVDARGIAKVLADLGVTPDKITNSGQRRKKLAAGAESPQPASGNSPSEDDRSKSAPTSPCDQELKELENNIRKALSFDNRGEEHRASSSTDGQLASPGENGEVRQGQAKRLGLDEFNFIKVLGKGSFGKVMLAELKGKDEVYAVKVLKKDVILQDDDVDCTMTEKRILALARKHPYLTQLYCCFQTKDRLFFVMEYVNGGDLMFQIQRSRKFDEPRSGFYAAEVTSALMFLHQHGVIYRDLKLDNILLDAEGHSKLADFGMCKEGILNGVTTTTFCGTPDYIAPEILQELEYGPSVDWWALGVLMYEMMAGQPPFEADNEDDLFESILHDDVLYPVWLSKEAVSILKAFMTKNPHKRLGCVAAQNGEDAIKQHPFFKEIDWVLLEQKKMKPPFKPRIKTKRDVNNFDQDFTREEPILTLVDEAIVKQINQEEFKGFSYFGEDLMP
# UniProt Q8VCC8: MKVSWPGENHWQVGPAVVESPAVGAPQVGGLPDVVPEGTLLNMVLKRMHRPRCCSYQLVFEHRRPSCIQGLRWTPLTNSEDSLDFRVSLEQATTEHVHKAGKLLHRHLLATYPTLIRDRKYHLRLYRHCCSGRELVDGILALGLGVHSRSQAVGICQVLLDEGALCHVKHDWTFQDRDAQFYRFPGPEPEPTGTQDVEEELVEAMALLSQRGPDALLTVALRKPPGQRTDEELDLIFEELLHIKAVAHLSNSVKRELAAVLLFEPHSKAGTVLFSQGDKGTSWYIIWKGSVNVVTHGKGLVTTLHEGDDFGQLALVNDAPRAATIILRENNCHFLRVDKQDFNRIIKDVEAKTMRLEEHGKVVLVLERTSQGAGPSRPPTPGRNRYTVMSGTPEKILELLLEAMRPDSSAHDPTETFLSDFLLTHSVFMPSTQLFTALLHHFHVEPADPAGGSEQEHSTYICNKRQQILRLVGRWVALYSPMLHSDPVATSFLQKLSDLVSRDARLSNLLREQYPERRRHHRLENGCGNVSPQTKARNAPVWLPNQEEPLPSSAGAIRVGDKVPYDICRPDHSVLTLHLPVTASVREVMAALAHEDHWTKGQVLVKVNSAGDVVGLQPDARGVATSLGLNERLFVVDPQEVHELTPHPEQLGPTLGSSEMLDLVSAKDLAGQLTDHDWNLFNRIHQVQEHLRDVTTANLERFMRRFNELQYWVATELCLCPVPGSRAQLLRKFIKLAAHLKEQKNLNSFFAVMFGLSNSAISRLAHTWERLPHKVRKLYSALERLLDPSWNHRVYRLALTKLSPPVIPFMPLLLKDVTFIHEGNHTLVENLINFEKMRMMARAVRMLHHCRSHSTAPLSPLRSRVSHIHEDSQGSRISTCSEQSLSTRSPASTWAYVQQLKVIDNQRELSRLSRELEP
# UniProt Q4KUS2: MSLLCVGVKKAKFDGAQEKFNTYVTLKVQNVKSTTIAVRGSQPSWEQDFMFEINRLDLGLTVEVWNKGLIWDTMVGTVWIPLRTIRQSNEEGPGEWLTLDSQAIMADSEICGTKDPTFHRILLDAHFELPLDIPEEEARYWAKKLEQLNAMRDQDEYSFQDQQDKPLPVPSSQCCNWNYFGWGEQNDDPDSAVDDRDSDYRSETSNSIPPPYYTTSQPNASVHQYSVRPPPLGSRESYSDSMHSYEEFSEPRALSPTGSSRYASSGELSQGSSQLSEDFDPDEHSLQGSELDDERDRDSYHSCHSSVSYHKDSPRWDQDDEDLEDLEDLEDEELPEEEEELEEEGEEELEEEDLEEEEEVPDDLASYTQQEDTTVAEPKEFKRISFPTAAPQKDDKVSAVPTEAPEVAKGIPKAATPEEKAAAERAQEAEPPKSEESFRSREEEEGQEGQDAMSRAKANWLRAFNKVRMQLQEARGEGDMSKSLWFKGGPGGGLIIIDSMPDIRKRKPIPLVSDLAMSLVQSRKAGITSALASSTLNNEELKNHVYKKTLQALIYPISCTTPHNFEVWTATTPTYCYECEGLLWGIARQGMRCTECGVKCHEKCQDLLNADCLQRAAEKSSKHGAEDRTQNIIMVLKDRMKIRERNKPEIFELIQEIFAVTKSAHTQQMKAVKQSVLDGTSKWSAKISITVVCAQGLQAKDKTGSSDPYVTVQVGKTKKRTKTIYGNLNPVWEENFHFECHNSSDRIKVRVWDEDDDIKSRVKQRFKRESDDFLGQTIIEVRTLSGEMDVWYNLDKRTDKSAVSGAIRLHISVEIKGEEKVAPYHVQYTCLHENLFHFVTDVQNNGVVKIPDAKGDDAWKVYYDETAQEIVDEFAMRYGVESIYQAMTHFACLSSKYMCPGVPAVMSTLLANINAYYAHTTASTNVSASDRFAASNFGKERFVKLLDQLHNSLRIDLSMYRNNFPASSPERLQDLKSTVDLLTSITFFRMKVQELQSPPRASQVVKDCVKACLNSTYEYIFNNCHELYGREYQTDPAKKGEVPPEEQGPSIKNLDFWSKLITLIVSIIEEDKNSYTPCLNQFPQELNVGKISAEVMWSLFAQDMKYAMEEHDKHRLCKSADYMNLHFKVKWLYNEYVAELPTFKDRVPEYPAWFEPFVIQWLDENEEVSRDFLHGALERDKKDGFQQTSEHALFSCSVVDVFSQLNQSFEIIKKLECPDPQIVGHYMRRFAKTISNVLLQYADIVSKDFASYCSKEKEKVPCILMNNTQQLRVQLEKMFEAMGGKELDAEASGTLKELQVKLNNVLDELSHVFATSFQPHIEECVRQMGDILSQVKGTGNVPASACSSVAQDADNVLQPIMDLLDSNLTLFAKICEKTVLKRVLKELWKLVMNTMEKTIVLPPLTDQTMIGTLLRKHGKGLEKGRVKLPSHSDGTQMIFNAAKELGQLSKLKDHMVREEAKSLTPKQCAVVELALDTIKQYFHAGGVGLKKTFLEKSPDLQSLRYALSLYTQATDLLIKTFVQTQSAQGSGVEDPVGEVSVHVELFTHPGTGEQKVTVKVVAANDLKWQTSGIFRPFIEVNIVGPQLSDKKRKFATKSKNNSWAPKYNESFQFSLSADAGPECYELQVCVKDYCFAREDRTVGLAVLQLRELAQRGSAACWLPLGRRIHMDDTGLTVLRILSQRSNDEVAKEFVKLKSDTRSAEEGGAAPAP
# No constants are given. Whether binding was seen depends on the method and setting. Binding seen in cells or lysates may run through a third protein. Some results given as binding are weak or reduced against the parent protein; the word gives no strength.
# What was measured:
# [1] = biological target: T1, RIM1 (mouse (endogenous in cerebellar synaptosomes)) (UniProt Q99NE5); test: co-IP; lysate of mouse cerebellar synaptosomes (P21) incubated with anti-RIM1 antibody precoupled to GammaBind Plus Sepharose, western blot; rabbit IgG as negative control; also done with synaptosomes of Rapgef3/4-dKO and Prkce-cKO mice and after 8-pCPT (20 μM, 30 min), 8-pCPT + εV1-2 (5 µM, 30 min) or FR236924 (200 nM, 30 min)
# T1 sequence: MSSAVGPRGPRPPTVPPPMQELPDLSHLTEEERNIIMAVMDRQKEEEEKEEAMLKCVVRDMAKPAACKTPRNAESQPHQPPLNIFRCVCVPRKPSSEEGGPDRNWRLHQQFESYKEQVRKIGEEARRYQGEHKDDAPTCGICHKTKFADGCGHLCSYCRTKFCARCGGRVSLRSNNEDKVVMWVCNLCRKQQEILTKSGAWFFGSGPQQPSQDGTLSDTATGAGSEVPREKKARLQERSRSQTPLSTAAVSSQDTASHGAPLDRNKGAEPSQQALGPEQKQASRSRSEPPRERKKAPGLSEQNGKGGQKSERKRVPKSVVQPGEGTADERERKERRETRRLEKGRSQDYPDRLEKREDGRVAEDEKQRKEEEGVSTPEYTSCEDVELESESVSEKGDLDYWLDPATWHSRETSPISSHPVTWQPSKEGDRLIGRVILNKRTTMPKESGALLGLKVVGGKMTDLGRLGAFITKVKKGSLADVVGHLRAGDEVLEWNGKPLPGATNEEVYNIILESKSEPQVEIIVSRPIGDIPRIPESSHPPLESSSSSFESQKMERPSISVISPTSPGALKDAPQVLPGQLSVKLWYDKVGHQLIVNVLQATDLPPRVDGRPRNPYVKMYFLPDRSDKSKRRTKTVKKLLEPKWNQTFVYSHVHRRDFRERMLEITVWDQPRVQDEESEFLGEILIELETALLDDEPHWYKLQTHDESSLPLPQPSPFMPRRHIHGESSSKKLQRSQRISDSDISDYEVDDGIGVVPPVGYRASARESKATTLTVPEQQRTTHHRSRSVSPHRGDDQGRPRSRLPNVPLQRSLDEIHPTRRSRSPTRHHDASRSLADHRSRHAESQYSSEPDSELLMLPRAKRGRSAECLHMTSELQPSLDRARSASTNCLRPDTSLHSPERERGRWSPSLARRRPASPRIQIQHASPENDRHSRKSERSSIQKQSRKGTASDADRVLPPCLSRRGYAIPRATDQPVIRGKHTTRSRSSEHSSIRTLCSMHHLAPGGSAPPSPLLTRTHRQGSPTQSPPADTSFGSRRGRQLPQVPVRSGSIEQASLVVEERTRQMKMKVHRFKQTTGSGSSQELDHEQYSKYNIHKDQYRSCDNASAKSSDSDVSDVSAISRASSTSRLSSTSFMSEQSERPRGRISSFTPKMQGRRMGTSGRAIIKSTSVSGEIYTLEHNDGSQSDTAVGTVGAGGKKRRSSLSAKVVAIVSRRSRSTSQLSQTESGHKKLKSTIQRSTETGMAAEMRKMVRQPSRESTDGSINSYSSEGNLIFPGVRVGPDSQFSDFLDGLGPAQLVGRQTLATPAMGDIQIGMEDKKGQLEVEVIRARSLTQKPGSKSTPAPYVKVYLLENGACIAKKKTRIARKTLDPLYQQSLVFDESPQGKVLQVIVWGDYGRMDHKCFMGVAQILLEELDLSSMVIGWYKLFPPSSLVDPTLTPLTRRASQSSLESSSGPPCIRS
# HA-RIM1α (rat) = HA-RIM1α (rat) (UniProt Q9JIR4); test: co-IP; lysate of HEK cells co-transfected with HA-RIM1α and His-PKCε, anti-HA antibody precoupled to GammaBind Plus Sepharose, western blot
binding [1],binding (HA-RIM1α (rat)),Substance
binds,–,PKCε (from UniProt P16054 1-737) (enzyme)
binds,–,EPAC2 (from UniProt Q9EQZ6 1-1011)
–,binds,His-PKCε (from UniProt P09216 1-737) (enzyme)
binds,–,EPAC1 (from UniProt Q8VCC8 1-918)
binds,–,Munc13-1 (from UniProt Q4KUS2 1-1712)
